In all, about 220,000 compounds went through this assay and about 2,400 (1.1%) were called active. Inconclusive results, whose numbers are uncertain, are shown with a selection of clear calls. Calls come from the whole dose curve; as a rule, active = well fitted inhibition curve with a large enough effect; inconclusive = small, poorly fitted or top-dose-only effect, or effect the other way; inactive = no such curve, though single readings can be large or run the other way. Potencies beside an inconclusive call are fits to weak or partial responses and may not hold up.
Test: qHTS Multiplex Assay to Identify Dual Action Probes in a Cell Model of Huntington: Aggregate Formation (GFP); note: nearly all actives have a fitted effect of over 60% in size
Details: PC12 HttQ103-GFP aggregates, Acumen cytometry, 40 h; activity change, negative = inhibition: at 46.1 µM (top of the series) unless noted
In short: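 Ecdysone-promoter PC12 model expressing HTT exon 1 Q103 fused to GFP, induced by tebufenozide at 100 nM final. Compounds titrated; aggregates sized 1–25 µm scored on a 488 nm laser cytometer.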
% is set by controls: 0 for no effect and ±100 for the full control effect; potency is the fitted concentration of half-maximal effect.

SMILES	Potency	activity change, negative = inhibition
CCn1c(SCc2nc(-c3ccc(Cl)cc3)no2)nnc1-c1ccco1	inconclusive: 11.2 µM [inhibitor, single point]	–
Cc1nc2[nH]onc2c2nccc(=O)c12	inconclusive: 8.91 µM [inhibitor, partial curve]	–
Cc1cc(C)cc(OCC(=O)N2N=C(C(F)(F)F)CC2(O)C(C)(C)C)c1 (stereo not drawn)	inconclusive: 25.1 µM [inhibitor, single point]	–
Cc1ccc(C(c2nnnn2C2CCCC2)N2c3ccccc3CC2C)cc1 (stereo not drawn)	inconclusive: 12.6 µM [inhibitor, partial curve]	–
COc1ccc(CC(=O)Nc2ccc(C(=O)Nc3ccccc3C(=O)O)cc2)cc1OC	–	inactive: -4.79%
Cc1cc(S(=O)(=O)N2CCCC2C(=O)N2CCOCC2)c(C)cc1Cl (stereo not drawn)	–	inactive: 12.4%
CC(C)(C)C(C(Oc1ccc(Cl)cc1)n1cncn1)n1nnnc1C(c1cccc(Cl)c1)N1CCCCC1 (stereo not drawn)	inconclusive: 35.5 µM [inhibitor, single point]	–
COc1ccc(-c2ccc(SCc3cccnc3)nn2)cc1OC	–	inactive: 4.58%
O=C(Nc1nnc(COc2ccccc2)s1)c1ccco1	inconclusive: 8.91 µM [inhibitor, partial curve, poor fit]	–
COC(=O)C1=C(C)N(Cc2ccc(C)cc2)C(=O)/C1=C\c1cc(OC)c(OC)c(OC)c1	inconclusive: 31.6 µM [activator, single point]	–
Cc1ccc(-c2cc(C(=O)Nc3ccc(S(=O)(=O)Nc4nccs4)cc3)c3ccccc3n2)c(C)c1	inconclusive: 25.1 µM [activator, partial curve]	–
CC1=C([N+](=O)[O-])C(c2cccc(Br)c2)C2=C(N1)c1ccccc1C2=O (stereo not drawn)	inconclusive: 31.6 µM [activator, single point]	–
CC(C)(C)Cc1nnc(NC(=O)c2cc(-c3ccccc3)nc3ccccc23)s1	inconclusive: 11.2 µM [inhibitor, partial curve]	–
Cc1cc(C(=O)CN2C(=O)NC3(CCC(C)CC3)C2=O)c(C)n1C (stereo not drawn)	inconclusive: 35.5 µM [activator, single point]	–
O=C(NCCNC1CCC(c2ccccc2)CC1)c1cccs1 (stereo not drawn)	–	inactive: 5.07% [at 9.22 µM]
O=C(c1ccccc1)c1c[nH]c(C(=O)NNc2ccccc2)c1	–	inactive: -9.56%
Cc1ccc(Nc2nc3nonc3[nH]c2=O)cc1C	inconclusive: 35.5 µM [inhibitor, single point]	–
Cc1sc2ncnc(Sc3nnnn3-c3ccccc3)c2c1C	inconclusive: 35.5 µM [inhibitor, single point]	–
CN(C(=O)c1ccc(S(=O)(=O)c2cccc(Cl)c2)c([N+](=O)[O-])c1)C1CCCCC1	inconclusive: 35.5 µM [inhibitor, single point]	–
Cc1ccc2cccc(OCCOCCOc3ccccc3Br)c2n1	inconclusive: 35.5 µM [inhibitor, single point]	–
O=C(CCS(=O)(=O)c1ccccc1)Nc1ccc(-c2nc3ccccc3s2)cc1	inconclusive: 15.8 µM [inhibitor, single point]	–
Cc1nc(-c2ccccc2)sc1-c1nc(-c2ccncc2)ncc1S(=O)(=O)c1ccccc1	inconclusive: 11.2 µM [inhibitor, single point]	–
CCOC(=O)CSc1nnc(CNc2cccc(Cl)c2)n1-c1ccccc1	–	inactive: -20.6%

Copied from the list:
For Potency, `Cc1cc(C)cc(OCC(=O)N2N=C(C(F)(F)F)CC2(O)C(C)(C)C)c1` (stereo not drawn) is entered as inconclusive: 25.1 µM [inhibitor, single point]
For Potency, `Cc1ccc(-c2cc(C(=O)Nc3ccc(S(=O)(=O)Nc4nccs4)cc3)c3ccccc3n2)c(C)c1` is entered as inconclusive: 25.1 µM [activator, partial curve]
For Potency, `CC(C)(C)Cc1nnc(NC(=O)c2cc(-c3ccccc3)nc3ccccc23)s1` is entered as inconclusive: 11.2 µM [inhibitor, partial curve]
For Potency, `CN(C(=O)c1ccc(S(=O)(=O)c2cccc(Cl)c2)c([N+](=O)[O-])c1)C1CCCCC1` is entered as inconclusive: 35.5 µM [inhibitor, single point]

Continuation:

SMILES	Potency	activity change, negative = inhibition
CN(C)S(=O)(=O)c1cccc(NC(=S)Nc2cccc3cnccc23)c1	inconclusive: 5.62 µM [inhibitor, single point]	–
Cc1ccc([N+](=O)[O-])cc1N/C=C/C(=O)c1ccco1	–	inactive: -7.3%
COC(=O)c1cc(NC(=S)Nc2cc(Cl)cc(Cl)c2)cc(C(=O)OC)c1	inconclusive: 15.8 µM [inhibitor, single point]	–
COc1cc(C=O)ccc1OCCOCCOc1ccc(Cl)cc1	–	inactive: 9.09%
CC(C)n1c(NCc2cc(Cl)ccc2O)nc2ccccc21	inconclusive: 25.1 µM [inhibitor, single point]	–
Cc1ccccc1NC(=O)c1sc(Cl)nc1-c1ccccc1	inconclusive: 35.5 µM [activator, single point]	–
COc1cc(OC)c(S(=O)(=O)NC(C)C)cc1S(=O)(=O)NC(C)C	–	inactive: -16.4%
Cc1ccc(Nc2nc(N)nc(CC#N)n2)cc1	active: 6.31 µM	–
CCOc1ccc2nc(N3CCC(C(=O)N4CCN(C5CCCCC5)CC4)CC3)sc2c1	inconclusive: 7.94 µM [activator, partial curve]	–
Cc1nc2ccc(NC(=O)c3nn(CC(C)C)c(=O)c4ccccc34)cc2s1	inconclusive: 6.31 µM [inhibitor, single point]	–
Cc1ccn2c(-c3csc(NCc4ccccc4)n3)c(C)nc2c1	active: 11.2 µM	–
CC(CCc1ccco1)NC(=O)c1cc2c(-c3ccccc3F)nn(C)c2s1 (stereo not drawn)	inconclusive: 15.8 µM [inhibitor, single point]	–
CCOc1ccccc1N1CCN(S(=O)(=O)c2ccc3c4c(cccc24)C(=O)N3)CC1	inconclusive: 11.2 µM [inhibitor, partial curve]	–
N#CC1=C(N)NC(SCc2ccccc2)=C(C#N)C12CCCCC2	inconclusive: 22.4 µM [inhibitor, single point]	–
COc1ccccc1N1CC(C(=O)Nc2cccc(C(=O)O)c2)CC1=O (stereo not drawn)	–	inactive: 4.61%
CCOC(=O)C1=C(C)NC(=S)N(C(C)=O)C1c1ccccc1 (stereo not drawn)	–	inactive: -4.07%
CCc1nnc(NC(=O)CSc2nc(-c3ccccc3)cc(-c3ccc(OC)cc3)c2C#N)s1	–	inactive: 2.94%
N#Cc1c(NC(=O)c2cccnc2)sc2c1CCC2	–	inactive: -10.4%
O=C(CN1CCCCC1)Nc1ccc(S(=O)(=O)N2CCCCCC2)cc1	–	inactive: 14.2% [at 9.22 µM]
O=C(c1ccccn1)N1N=C2/C(=C/c3ccccc3)CCCC2C1c1ccccc1 (stereo not drawn)	inconclusive: 25.1 µM [inhibitor, single point]	–
Cc1nc(NC(=O)/C=C/c2ccccc2)n[nH]1	inconclusive: 2.82 µM [activator, partial curve]	–
Nc1cc(-c2ccc(Br)cc2)nn1S(=O)(=O)c1cccc2nsnc12	active: 25.1 µM	–
COc1cc(NC(=O)C2CC(c3cccc(OC)c3OC)=NO2)cc(OC)c1OC (stereo not drawn)	inconclusive: 17.8 µM [inhibitor, single point]	–

SMILES	Potency	activity change, negative = inhibition
Cc1ccccc1Nc1nc2ccccc2s1	–	inactive: -14.2%
COCCNC(=O)CN(C(=O)CCC(=O)Nc1ccccn1)c1ccc(F)c(Cl)c1	inconclusive: 20 µM [inhibitor, single point]	–
COc1cccc(NC(=S)N2CCn3cccc3C2c2cccnc2)c1 (stereo not drawn)	–	inactive: -13.6%
Cn1ccnc1SCC(=O)c1cc2ccccc2o1	–	inactive: -3.8%
CN(C)c1ccc(C(=S)N2CCN(C(=S)Nc3cccc4ccccc34)CC2)cc1	inconclusive: 6.31 µM [activator, full curve]	–
Cc1ccc(C(=O)COC(=O)c2cccc(NC(=O)c3ccc([N+](=O)[O-])cc3[N+](=O)[O-])c2)cc1	inconclusive: 5.62 µM [inhibitor, single point]	–
O=C(NCc1ccc2c(c1)OCO2)c1ccc(-c2ccc(Cl)cc2)o1	inconclusive: 35.5 µM [inhibitor, single point]	–
COc1cc(OC)c(OC)cc1/C=N/NC(=O)c1cccc(S(=O)(=O)N2CCOCC2)c1	inconclusive: 11.2 µM [inhibitor, single point]	–
Cc1ccccc1NC(=O)CSc1nnc(Cc2cccn2C)n1-c1ccc(F)cc1	inconclusive: 10 µM [activator, partial curve, poor fit]	–
Cc1cc(C)c(C)c(S(=O)(=O)N2CCN(c3ccc(O)cc3)CC2)c1C	inconclusive: 11.2 µM [inhibitor, single point]	–
COc1ccc(Nc2nc(NC(C)(C)C)nc(N3CCCC3)n2)c(OC)c1	inconclusive: 28.2 µM [inhibitor, single point]	–
CN(C)S(=O)(=O)c1ccc(Cl)c(NC(=O)CSc2nc3c(cc2C#N)C(=O)CC(C)(C)C3)c1	inconclusive: 31.6 µM [activator, single point]	–
Cc1nnc(SCC(=O)c2cc(C)n(-c3c(C)n(C)n(-c4ccccc4)c3=O)c2C)s1	–	inactive: -12.7%
Oc1ccccc1C1=NOC(O)(C(F)F)C1 (stereo not drawn)	inconclusive: 2 µM [activator, single point]	–
COc1ccc(/C=N/Nc2nc(Nc3ccccc3)nc(N3CCCC3)n2)cc1[N+](=O)[O-]	inconclusive: 11.2 µM [inhibitor, partial curve]	–
N#C/C(=N\Nc1ccc(S(=O)(=O)N2CCc3ccccc32)cc1)C(N)=S	inconclusive: 25.1 µM [inhibitor, single point]	–
Cc1c(Cl)cccc1N=Cc1ccc([N+](=O)[O-])s1	inconclusive: 35.5 µM [inhibitor, single point]	–
Cc1ccc2c(c1)N(CC(=O)O)C(=O)CO2	inconclusive: 11.2 µM [activator, partial curve]	–
Cn1c(Cn2nnc(-c3ccccc3)n2)nnc1SCc1ccccc1Cl	inconclusive: 31.6 µM [inhibitor, single point]	–
CN(c1ccccc1)c1nc(N)c(C#N)c(CC#N)c1C#N	inconclusive: 17.8 µM [inhibitor, single point]	–
COc1ccc(C)cc1NC(=O)CN(C)S(=O)(=O)c1cc(C)ccc1OC	inconclusive: 3.16 µM [inhibitor, single point]	–
Cc1ccc(C(=O)NC(=S)Nc2cccc(NC(=O)c3ccccc3)c2)cc1[N+](=O)[O-]	–	inactive: 3.56%
